Among all 31,000 sequences or so, about 1,400 (4.5%) were called active.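 The calls were made as follows: active = median seed-adjusted z-score above 1 or below -1; inactive = the rest.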 Some of the results follow.

69 sequences from PubChem BioAssay AID1347426 (Functional Genomics Laboratory (NCATS/FGL), 2020) can be followed below.

A short description of this test: Novel Modifiers of Survival Motor Neuron (SMN) Protein: Gene Identification via Genome-wide siRNA Screen.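 Also: luminescence tracks full-length SMN protein made from the SMN2 reporter.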 Conditions: HEK293T SMN2-luciferase reporter, siRNA knockdown, 72 h; actives lie on both sides. The method in brief:
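Steps: spot 1 pmol siRNA, add Lipofectamine RNAiMax in serum-free DMEM, seed HEK293T SMN2–luciferase reporter cells; incubate 72 h at 37 °C; add ONE-Glo; normalize luminescence to control siRNA, log10, MAD. Candidates: |MAD| > 1.0.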
In general terms: In a reporter assay the amount or activity of a reporter protein is the signal.
Take GGUUGAAAAUGGAUUCGAATT against TCF21: the median seed-adjusted z-score is inactive: -0.15.

For ACUUCUCUUUGAUCUCUGATT against TUBB4, the median seed-adjusted z-score is inactive: 0.

In the case of GCCUCGUAUAUGUCACUUUTT against ITFG2, the median seed-adjusted z-score was inactive: 0.165.

In the case of AAACCUAGCCGGCUCCAAATT against MGC21874, the median seed-adjusted z-score was inactive: -0.354.

Consider GCAUGAUUCCUAUAGUCAATT against TAF15, for which the median seed-adjusted z-score is inactive: 0.357.

Consider AGACGAUCCGGGUAAAGUUTT against LSM7, for which the median seed-adjusted z-score is inactive: -0.45.

In the case of GGGUUAUCUCUUUCAUACATT against CDC25A, the median seed-adjusted z-score was inactive: 0.235.

With CGGUCUUCGGCAACAUUAATT against SLCO2A1, the median seed-adjusted z-score is inactive: -0.0778.

In the case of CUGUCCAAAUAGCACAUUUTT against ZNF619, the median seed-adjusted z-score is inactive: -0.536.

Regarding CCAGAGUUCGUCAACUAAATT against PKD2L2, the median seed-adjusted z-score is inactive: -0.0723.

As for GACGUGUAGUGAAUGGGAATT against CBX3, the median seed-adjusted z-score was inactive: -0.893.

In the case of GCAGAAGUAUGAGCUGCGATT against MFAP4, the median seed-adjusted z-score was inactive: -0.28.

Consider GGAUAUUACACCACCAUAUTT against MTMR6, for which the median seed-adjusted z-score was inactive: -0.395.

In the case of CACCCGUACAUCCUACUGATT against ZNF746, the median seed-adjusted z-score was inactive: 0.1.

As for GCUAUGAAGUGUAUAAGGATT against PRKG2, the median seed-adjusted z-score was inactive: 0.272.

Regarding GCAUGAAUGAGAGCCGAUATT against FUT7, the median seed-adjusted z-score is inactive: -0.146.

On to AGUACUUGAUGAAACCAUUTT against ACVR1B, for which the median seed-adjusted z-score was inactive: 0.201.

For GGACAAAAGGUACUGGUGATT against TCAP, the median seed-adjusted z-score was inactive: -0.177.

As to AGACGACUGUUACAAGUUUTT against BACE1, the median seed-adjusted z-score is inactive: -0.537.

In the case of GCAACUGAAUUGAGUAUAATT against STX6, the median seed-adjusted z-score was inactive: 0.748.

On to GGUACACCCUCUUAUAUCATT against GANAB, for which the median seed-adjusted z-score is inactive: 0.269.

For GCUGUAGAGUUGUAUGGAATT against BTN1A1, the median seed-adjusted z-score was inactive: 0.291.

Regarding AGCCCUCUUCUGACACUAATT against SERPINH1, the median seed-adjusted z-score was inactive: 0.186.

Consider CAGCACCGCGACUACAUUATT against FUT7, for which the median seed-adjusted z-score is inactive: -0.146.

Regarding GGUUACUAAGAGACUAAAATT against AGPAT9, the median seed-adjusted z-score is inactive: 0.

For GCAUUGAGAUUCCUGCAGATT against PKM2, the median seed-adjusted z-score was inactive: -0.0312.

Regarding GGAAAAACCUUCUACCUGATT against ZNF12, the median seed-adjusted z-score is inactive: -0.144.

With AAUUCUUGAUCAUCUGCAATT against LOC158381, the median seed-adjusted z-score is inactive: 0.

Turning to CCAUCUUAAACUCGCUCUATT against GPR114, the median seed-adjusted z-score was inactive: 0.805.

Consider CGACUACAUCAUGUCCUUUTT against MOGAT3, for which the median seed-adjusted z-score is inactive: -0.383.

With GAUCCGUUCUGAUUAGUGATT against EZH1, the median seed-adjusted z-score was inactive: 0.268.

For GCAGUGUCAUCUGCAACAATT against EIF2B3, the median seed-adjusted z-score was inactive: -0.271.

Regarding GCAUUCACCAGAACGAGAATT against RIMS1, the median seed-adjusted z-score is inactive: 0.

As to GGUUUCAAGAUAACCCAAATT against POU2F3, the median seed-adjusted z-score was active: -1.53.

Turning to GCAUCCUACUUGUCCUAAUTT against REST, the median seed-adjusted z-score is inactive: 0.416.

Take GGAAUUUUGUAUUCUGUUUTT against MKNK2: the median seed-adjusted z-score is inactive: 0.281.

In the case of GUCUCACCAUGAACUCCAATT against LEPRE1, the median seed-adjusted z-score was inactive: 0.121.

In the case of UGACAAACUUAGGAGAAAATT against CALM1, the median seed-adjusted z-score was inactive: 0.355.

Take ACAGCGCUCUCAAUCCCUUTT against GPR150: the median seed-adjusted z-score was inactive: -0.129.

In the case of CAAGCUACGUAGAGAUCUATT against KIFC1, the median seed-adjusted z-score is inactive: 0.0417.

GGACUAUGAGCCUACCAAATT against RALA: the median seed-adjusted z-score is inactive: 0.553.

For CAGAUGCCUUGAUUCGCGATT against ZNF543, the median seed-adjusted z-score was inactive: 0.

Consider CAUUCAAUCCGGACCAUUUTT against CYP2J2, for which the median seed-adjusted z-score is inactive: 0.00659.

Regarding ACAUCAUCGACGAGAAUAATT against LHX1, the median seed-adjusted z-score is inactive: 0.

Take CAGUCUUGAUUGAUAUGGATT against TUBE1: the median seed-adjusted z-score was inactive: -0.00933.

With CCAUGGAAGAGCUUGCUGATT against FMO5, the median seed-adjusted z-score is inactive: 0.0069.

Take CCUGCUAAGUAGCAUUGAATT against KLHL12: the median seed-adjusted z-score was inactive: -0.0991.

Turning to GGUCUACACUGACUACGCUTT against DNAH2, the median seed-adjusted z-score was inactive: -0.342.

Regarding CGGUGCUGCUAGACGUGAATT against HSPB6, the median seed-adjusted z-score was inactive: 0.394.

As to GGAGUUUGUUUGCAAGUAUTT against RREB1, the median seed-adjusted z-score was inactive: -0.414.

GGCCUCUCAUGCUUAGUUATT against PGGT1B: the median seed-adjusted z-score is inactive: -0.164.

Turning to GGAGCGGUUCAGAUCAAUATT against RAB39, the median seed-adjusted z-score was inactive: -0.408.

For the sequence GCACAUACCCUGCAGAAGATT against PLIN, the median seed-adjusted z-score is inactive: 0.166.

As to GGGUCUCAAUGGGUCUCAUTT against NGB, the median seed-adjusted z-score is inactive: 0.

As to GGAUACCCAAUGCAAAUUATT against MMP16, the median seed-adjusted z-score is inactive: 0.144.

Regarding GGAGGAGUGUUGGAGUAUUTT against RHOBTB3, the median seed-adjusted z-score was inactive: 0.256.

As for GCACAGAGGAACGAACUAATT against PSMC5, the median seed-adjusted z-score was active: -1.06.

In the case of GAUGCUGUAUGAUUAUGUUTT against POLD3, the median seed-adjusted z-score is inactive: -0.161.

GUAGCGUAACCAACAUUUATT against OLIG1: the median seed-adjusted z-score is inactive: -0.387.

Turning to GGCAGUGUUUAUUUACUAUTT against RHBDL2, the median seed-adjusted z-score is inactive: 0.0701.

Consider CGACUUGCGCAAGCAUGAATT against ZNF668, for which the median seed-adjusted z-score is inactive: 0.

Regarding GCAGAUACAUUGAUCGCAUTT against PRPF8, the median seed-adjusted z-score is active: -1.54.

With GGACUAUCUGCAUAGCUUATT against ATP2B4, the median seed-adjusted z-score is inactive: 0.

With CAAGGACCAGAAUAUCUUUTT against RBM28, the median seed-adjusted z-score was inactive: 0.649.

In the case of GGGAAUUCCUUAUAGAGUUTT against DPH5, the median seed-adjusted z-score was inactive: 0.

On to AGCUGCACAUGGAAGGGUUTT against LIN28, for which the median seed-adjusted z-score was inactive: -0.348.

Consider GCAGGCUAAUCGCAAUGAATT against ANXA13, for which the median seed-adjusted z-score was inactive: -0.467.

On to UGGGAGAAGUACAACAAUATT against FAM12A, for which the median seed-adjusted z-score was inactive: 0.08.

For GGUUGCUAUCAAUACCCUUTT against SLC22A18, the median seed-adjusted z-score is inactive: -0.654.
